Source: PubChem BioAssay AID540276 (National Center for Advancing Translational Sciences (NCATS), 2011)
Where “and” joins values, the source holds several entries; their conditions need not be identical. Equal values may be shown once. Screen size: about 300,000 compounds; about 5,400 (1.8%) were called active. Inconclusive means that the source gave no clear call. Such entries were picked first, then a sample of the others. Calls follow the shape of the full dose curve; tested in HEK293 cells. Potencies beside an inconclusive call are fits to weak or partial responses and may not hold up.

Test: qHTS for inhibitors of binding or entry into cells for Marburg Virus
Conditions: Marburg virus pseudotyped entry inhibition, cell reporter; activity change, negative = inhibition: at 37.8 µM (top of the series) unless noted
% is scaled to controls: 0 for no effect and ±100 for the full control effect; potency is read from the fitted curve at half-maximal effect.

SMILES | Potency | activity change, negative = inhibition
CCc1ccc(NC(=O)N2CC=C(c3c[nH]c4ccccc34)CC2)cc1 | inconclusive: 25.1 µM [inhibitor, single point] | 
CCc1nnc(NC(=O)CSc2nnc3nc(C)cc(C)n23)s1 | inconclusive: 12.6 µM [activator, partial curve, poor fit] | 
CNc1nc(N)c(C(=O)C23CC4CC(CC(C4)C2)C3)s1 | inconclusive: 35.5 µM [inhibitor, single point] | 
NC(=S)N/N=C1/CCSc2ccc3ccccc3c21 | inconclusive: 35.5 µM [inhibitor, single point] | 
CCCNC(=O)OC[C@H]1O[C@H](CCON=C2c3cc(OC)ccc3O[C@H](c3cccc(OC)c3)[C@H]2O)C=C[C@H]1Oc1ccc(OC)cc1 | inconclusive: 0.0094 µM [inhibitor, full curve, poor fit] | 
Cn1ncc([N+](=O)[O-])c1C(=O)Nc1ccn(Cc2ccccc2F)n1 |  | inactive: 2.72%
COc1ccc(/C(C)=N/OCC(=O)Nc2nc3ccccc3s2)cc1 |  | inactive: 1.31%
O=C(NC(=S)NCCc1ccccc1)c1ccccc1F |  | inactive: -29.5% [at 46.1 µM]
Cc1cccc(-c2cc(C(=O)Nc3c(C)n(C)n(-c4ccccc4)c3=O)c3ccccc3n2)c1 | inconclusive: 35.5 µM [inhibitor, single point] | 
CC(=O)/C=C1\C(=O)N(C)c2ccccc21 | inconclusive: 29.1 µM [inhibitor, single point] | 
O=C(CCCn1cnc([N+](=O)[O-])n1)Nc1cccc(O)c1 | inconclusive: 35.5 µM [activator, single point] | 
O=C1OC(c2ccccc2)=C/C1=C\N1CCOCC1 |  | inactive: -5.81%
C(=NN=C(NN=Cc1cccs1)NN=Cc1cccs1)c1cccs1 | inconclusive: 31.6 µM [inhibitor, single point] | 
S=C(NC1CCCCC1)N1CCN(C/C=C/c2ccccc2)CC1 | inconclusive: 35.5 µM [inhibitor, single point] | 
COc1ccc(CNS(=O)(=O)c2ccc(-n3cnnn3)c(C)c2)cc1 | inconclusive: 1 µM [activator, full curve, poor fit] | 
CCCNCc1nnc(-c2ccccc2Cl)o1 | inconclusive: 35.5 µM [activator, single point] | 
c1ccc(CN2C3=NCCN3c3ccccc32)cc1 | inconclusive: 20.6 µM [inhibitor, single point] | 
Cn1c(=O)c2ncn(CC(=O)Nc3cc(C(F)(F)F)ccc3N3CCOCC3)c2n(C)c1=O |  | inactive: 13.6%
COc1ccc(OCCOC(=O)c2cccc(-n3cnnn3)c2)cc1 | inconclusive: 10.3 µM [activator, partial curve] | 
COc1cccc(COC(=O)c2nn(-c3ccccc3)nc2N)c1 | inactive and inconclusive: 1.12 µM [activator, partial curve, poor fit] | 

Given in markdown: entries from further up.

| SMILES | Potency | activity change, negative = inhibition |
| --- | --- | --- |
| NC(=S)N/N=C1/CCSc2ccc3ccccc3c21 | inconclusive: 35.5 µM [inhibitor, single point] |  |
| CCCNC(=O)OC[C@H]1O[C@H](CCON=C2c3cc(OC)ccc3O[C@H](c3cccc(OC)c3)[C@H]2O)C=C[C@H]1Oc1ccc(OC)cc1 | inconclusive: 0.0094 µM [inhibitor, full curve, poor fit] |  |
| Cn1ncc([N+](=O)[O-])c1C(=O)Nc1ccn(Cc2ccccc2F)n1 |  | inactive: 2.72% |

More entries.

SMILES | Potency | activity change, negative = inhibition
Cc1ccc(C(=O)N/N=C\c2ccc([N+](=O)[O-])o2)cn1 | inconclusive: 15.8 µM [inhibitor, partial curve, poor fit] | 
CCc1ccc(S(=O)(=O)/N=C2\C=C(Nc3ccc(O)cc3)C(=O)c3ccccc32)cc1 | inconclusive: 2.82 µM [inhibitor, full curve, poor fit] | 
CCC(CC)C(=O)Nc1cccc(-c2nc3cccnc3s2)c1 | inconclusive: 1 µM [inhibitor, full curve, poor fit] | 
CCC(=NCCc1c(C)[nH]c2ccccc12)C1=C(O)CC(c2ccccc2)CC1=O (stereo not given) | inconclusive: 15.8 µM [inhibitor, single point] | 
CCNC(=S)N1CCN(c2cccc(C(F)(F)F)c2)CC1 | inconclusive: 0.1 µM [activator, full curve, poor fit] | 
c1ccc2[nH]c(CN3CCN(c4ncnc5c4oc4ccccc45)CC3)nc2c1 | inconclusive: 15.8 µM [inhibitor, single point] | 
Cc1cc(C)cc(NC(=O)Cn2c(-c3ccccc3Cl)nc3ccccc32)c1 | inconclusive: 2.82 µM [inhibitor, partial curve, poor fit] | 
CCCc1c(C)nc(N2CCN(c3cccc(OC)c3)CC2)[nH]c1=O | inconclusive: 3.55 µM [inhibitor, full curve] | 
Cc1ccc(/C=C/C(=O)N2CCc3ccccc32)o1 | inconclusive: 1.3 µM [activator, partial curve, poor fit] | 
CCn1c(=O)cc(SCC(=O)N2CCN(c3ccccn3)CC2)c2ccccc21 | inconclusive: 0.562 µM [inhibitor, single point] | 
Cc1cccc(OCc2nnc(SCC(=O)Nc3ccc(N4CCOCC4)cc3)o2)c1 | inconclusive: 7.08 µM [activator, partial curve, poor fit] | 
O=C1C2C3c4ccccc4C(c4ccccc43)C2C(=O)N1c1nc(-c2ccccc2)cs1 (stereo not given) | inconclusive: 1.41 µM [inhibitor, full curve, poor fit] | 
Cc1cc(CNCc2cn(C)nc2-c2ccc(Oc3ccccc3)cc2)on1 |  | inactive: -23.4% [at 46.1 µM]
COc1cc(OC)cc(-c2cc3nc4c(c(N5CCN(c6ncccn6)CC5)n3n2)CCCC4)c1 | inconclusive: 16.4 µM [inhibitor, partial curve, poor fit] | 
CC(=O)Nc1ccc(N2C(C(C)=O)=NN(c3ccccc3)C2c2cccs2)cc1 (stereo not given) | inconclusive: 25.9 µM [inhibitor, partial curve, poor fit] | 
COc1ccccc1N1C(=O)C2CC=CC(C)C2C1=O (stereo not given) |  | inactive: 5.56%
O=C(NC(C(=O)N/N=C/c1ccccc1)c1n[nH]c(=O)c2ccccc12)c1ccccc1 (stereo not given) | inconclusive: 11.2 µM [inhibitor, partial curve, poor fit] | 
CCCCc1ccc(NC(=O)CSc2nc(=O)n(CCN(CC)CC)c3c2CCC3)cc1 | inconclusive: 14.1 µM [inhibitor, single point] | 
O=C(O)CC(Cc1ccc(Cl)cc1)C(=O)Nc1cc(Cl)ccc1Cl (stereo not given) |  | inactive: 21.6% [at 46.1 µM]
CCc1ccccc1NC(=O)Cn1nc(-c2cc(C)ccc2C)c2c(c1=O)CCCC2 | inconclusive: 0.631 µM [inhibitor, partial curve, poor fit] | 
